# Data published in the supplement of paper PMC10849652.
# Protein sequences, listed by entry. Tags and fused reporters are not part of them. Lines headed by an entry give the natural chain unless they say otherwise; changes in a name come on top.
# UniProt Q9ULX9: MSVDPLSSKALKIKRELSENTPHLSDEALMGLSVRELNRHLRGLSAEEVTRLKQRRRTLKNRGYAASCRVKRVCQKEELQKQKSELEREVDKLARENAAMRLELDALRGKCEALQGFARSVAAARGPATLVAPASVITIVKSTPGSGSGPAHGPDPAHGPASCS
# UniProt Q9Y250: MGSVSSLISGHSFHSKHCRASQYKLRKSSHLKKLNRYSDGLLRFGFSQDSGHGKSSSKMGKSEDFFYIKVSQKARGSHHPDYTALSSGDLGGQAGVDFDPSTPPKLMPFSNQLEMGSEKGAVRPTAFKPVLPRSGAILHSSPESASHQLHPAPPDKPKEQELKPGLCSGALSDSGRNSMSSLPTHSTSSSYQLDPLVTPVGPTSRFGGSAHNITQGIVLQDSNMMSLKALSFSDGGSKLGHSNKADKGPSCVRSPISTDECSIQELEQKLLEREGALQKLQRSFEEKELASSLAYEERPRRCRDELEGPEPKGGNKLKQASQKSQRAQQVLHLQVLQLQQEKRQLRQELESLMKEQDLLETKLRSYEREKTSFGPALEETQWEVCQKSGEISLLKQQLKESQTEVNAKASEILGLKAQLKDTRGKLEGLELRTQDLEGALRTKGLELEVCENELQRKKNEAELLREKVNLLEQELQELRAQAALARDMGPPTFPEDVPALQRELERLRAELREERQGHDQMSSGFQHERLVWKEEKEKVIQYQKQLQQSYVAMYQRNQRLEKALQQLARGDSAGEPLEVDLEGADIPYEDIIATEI
# UniProt O60732: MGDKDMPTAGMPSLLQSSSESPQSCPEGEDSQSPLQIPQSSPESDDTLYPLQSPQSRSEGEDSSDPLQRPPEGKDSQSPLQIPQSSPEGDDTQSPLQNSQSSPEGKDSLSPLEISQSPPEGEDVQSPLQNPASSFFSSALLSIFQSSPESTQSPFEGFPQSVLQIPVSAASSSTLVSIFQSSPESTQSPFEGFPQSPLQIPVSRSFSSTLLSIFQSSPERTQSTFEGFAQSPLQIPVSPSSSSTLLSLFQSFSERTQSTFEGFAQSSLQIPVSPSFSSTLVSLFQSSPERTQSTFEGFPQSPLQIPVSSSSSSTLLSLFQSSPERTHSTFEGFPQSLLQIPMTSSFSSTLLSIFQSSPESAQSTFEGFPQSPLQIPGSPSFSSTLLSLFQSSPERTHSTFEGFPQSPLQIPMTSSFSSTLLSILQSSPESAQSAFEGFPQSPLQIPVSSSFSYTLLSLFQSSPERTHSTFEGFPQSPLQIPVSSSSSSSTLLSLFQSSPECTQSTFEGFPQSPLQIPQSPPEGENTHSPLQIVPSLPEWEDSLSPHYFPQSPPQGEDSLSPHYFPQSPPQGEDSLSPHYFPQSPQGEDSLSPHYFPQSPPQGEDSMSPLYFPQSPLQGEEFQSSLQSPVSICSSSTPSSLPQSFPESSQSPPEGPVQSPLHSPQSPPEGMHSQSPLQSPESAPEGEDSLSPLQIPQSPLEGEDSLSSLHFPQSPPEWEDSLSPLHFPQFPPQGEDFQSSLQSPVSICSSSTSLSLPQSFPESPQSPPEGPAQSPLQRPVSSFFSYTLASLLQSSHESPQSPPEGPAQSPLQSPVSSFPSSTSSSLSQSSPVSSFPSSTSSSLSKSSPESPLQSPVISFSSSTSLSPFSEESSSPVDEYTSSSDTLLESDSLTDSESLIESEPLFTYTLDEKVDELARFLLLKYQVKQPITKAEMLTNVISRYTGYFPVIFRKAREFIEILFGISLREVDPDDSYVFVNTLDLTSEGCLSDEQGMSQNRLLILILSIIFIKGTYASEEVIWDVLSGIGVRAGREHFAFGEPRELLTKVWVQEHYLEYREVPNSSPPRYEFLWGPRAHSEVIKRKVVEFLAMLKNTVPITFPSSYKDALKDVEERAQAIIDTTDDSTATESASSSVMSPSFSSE
# UniProt P02788: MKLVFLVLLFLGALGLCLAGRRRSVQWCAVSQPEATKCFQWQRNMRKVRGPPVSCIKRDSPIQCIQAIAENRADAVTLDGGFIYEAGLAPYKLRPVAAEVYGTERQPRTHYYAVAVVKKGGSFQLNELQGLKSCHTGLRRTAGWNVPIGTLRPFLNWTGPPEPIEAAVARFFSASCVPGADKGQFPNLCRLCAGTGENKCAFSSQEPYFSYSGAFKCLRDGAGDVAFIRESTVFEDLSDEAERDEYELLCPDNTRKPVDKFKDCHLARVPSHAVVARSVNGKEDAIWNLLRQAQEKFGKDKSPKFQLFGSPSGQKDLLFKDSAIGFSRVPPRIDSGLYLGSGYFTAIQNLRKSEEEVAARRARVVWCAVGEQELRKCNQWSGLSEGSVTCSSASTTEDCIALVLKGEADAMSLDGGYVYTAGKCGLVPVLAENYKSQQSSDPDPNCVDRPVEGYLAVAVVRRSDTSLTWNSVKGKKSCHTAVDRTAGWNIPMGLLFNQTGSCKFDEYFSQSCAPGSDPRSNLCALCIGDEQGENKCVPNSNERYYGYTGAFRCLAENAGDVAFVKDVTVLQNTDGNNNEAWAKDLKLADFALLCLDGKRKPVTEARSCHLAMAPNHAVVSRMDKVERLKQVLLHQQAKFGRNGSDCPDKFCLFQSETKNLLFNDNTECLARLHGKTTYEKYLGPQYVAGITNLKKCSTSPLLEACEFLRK
# UniProt Q66K74: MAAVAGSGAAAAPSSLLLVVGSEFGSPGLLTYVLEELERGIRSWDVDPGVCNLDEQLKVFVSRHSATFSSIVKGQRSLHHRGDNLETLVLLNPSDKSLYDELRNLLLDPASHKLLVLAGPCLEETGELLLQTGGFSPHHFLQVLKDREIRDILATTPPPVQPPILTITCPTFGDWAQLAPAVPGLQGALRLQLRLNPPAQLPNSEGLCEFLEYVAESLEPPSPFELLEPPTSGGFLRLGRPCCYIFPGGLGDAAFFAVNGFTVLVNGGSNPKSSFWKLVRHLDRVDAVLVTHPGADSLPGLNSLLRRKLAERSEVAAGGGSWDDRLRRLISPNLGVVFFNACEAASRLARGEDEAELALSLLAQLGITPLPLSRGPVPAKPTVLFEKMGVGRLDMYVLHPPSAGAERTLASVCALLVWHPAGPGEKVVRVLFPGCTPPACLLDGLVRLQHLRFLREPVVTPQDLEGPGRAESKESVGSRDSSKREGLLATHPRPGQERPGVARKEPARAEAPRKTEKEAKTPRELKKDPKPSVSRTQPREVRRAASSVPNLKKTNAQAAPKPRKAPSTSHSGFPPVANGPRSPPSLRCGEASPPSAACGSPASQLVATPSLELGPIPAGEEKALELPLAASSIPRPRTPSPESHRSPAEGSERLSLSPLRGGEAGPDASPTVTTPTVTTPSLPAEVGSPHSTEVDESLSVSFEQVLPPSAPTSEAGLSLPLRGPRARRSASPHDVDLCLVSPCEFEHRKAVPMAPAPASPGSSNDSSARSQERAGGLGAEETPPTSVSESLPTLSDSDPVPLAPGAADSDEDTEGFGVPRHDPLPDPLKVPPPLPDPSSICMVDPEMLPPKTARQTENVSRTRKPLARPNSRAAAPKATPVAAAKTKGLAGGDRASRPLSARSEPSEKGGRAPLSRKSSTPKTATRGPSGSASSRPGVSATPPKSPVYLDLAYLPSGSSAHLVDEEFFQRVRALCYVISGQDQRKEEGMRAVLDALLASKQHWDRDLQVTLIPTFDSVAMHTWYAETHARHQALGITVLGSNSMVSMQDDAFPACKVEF
# UniProt Q96S90: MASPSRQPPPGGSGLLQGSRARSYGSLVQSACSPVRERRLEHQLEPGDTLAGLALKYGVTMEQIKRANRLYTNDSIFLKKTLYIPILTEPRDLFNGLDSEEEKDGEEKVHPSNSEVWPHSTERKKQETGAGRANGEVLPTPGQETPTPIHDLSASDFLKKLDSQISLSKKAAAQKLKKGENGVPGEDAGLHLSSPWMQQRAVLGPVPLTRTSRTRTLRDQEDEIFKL
# UniProt O60476: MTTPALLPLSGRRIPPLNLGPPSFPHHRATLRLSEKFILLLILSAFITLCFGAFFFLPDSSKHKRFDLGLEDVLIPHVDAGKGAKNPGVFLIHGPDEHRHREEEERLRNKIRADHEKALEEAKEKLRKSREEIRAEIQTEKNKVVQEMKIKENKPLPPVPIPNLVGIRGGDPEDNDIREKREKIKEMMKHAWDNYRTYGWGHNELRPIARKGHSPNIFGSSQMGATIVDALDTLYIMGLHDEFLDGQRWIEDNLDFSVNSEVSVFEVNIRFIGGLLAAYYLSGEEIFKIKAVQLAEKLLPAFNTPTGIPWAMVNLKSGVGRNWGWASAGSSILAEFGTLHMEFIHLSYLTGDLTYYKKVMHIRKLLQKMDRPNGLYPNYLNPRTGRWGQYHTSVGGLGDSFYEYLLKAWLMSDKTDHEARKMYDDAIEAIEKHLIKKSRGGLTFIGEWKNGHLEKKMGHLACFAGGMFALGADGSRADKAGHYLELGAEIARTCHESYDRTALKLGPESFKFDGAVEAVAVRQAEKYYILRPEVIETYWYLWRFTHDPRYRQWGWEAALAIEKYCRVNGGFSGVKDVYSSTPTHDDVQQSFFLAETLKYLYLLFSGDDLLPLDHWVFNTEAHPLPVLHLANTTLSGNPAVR
# UniProt O95372: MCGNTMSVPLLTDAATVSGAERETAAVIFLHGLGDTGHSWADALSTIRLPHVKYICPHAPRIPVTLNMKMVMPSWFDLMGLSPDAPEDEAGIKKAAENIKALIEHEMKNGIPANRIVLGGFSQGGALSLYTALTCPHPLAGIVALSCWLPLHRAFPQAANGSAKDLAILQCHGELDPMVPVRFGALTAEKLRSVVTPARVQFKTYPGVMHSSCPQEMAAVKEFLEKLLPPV
# UniProt O43318: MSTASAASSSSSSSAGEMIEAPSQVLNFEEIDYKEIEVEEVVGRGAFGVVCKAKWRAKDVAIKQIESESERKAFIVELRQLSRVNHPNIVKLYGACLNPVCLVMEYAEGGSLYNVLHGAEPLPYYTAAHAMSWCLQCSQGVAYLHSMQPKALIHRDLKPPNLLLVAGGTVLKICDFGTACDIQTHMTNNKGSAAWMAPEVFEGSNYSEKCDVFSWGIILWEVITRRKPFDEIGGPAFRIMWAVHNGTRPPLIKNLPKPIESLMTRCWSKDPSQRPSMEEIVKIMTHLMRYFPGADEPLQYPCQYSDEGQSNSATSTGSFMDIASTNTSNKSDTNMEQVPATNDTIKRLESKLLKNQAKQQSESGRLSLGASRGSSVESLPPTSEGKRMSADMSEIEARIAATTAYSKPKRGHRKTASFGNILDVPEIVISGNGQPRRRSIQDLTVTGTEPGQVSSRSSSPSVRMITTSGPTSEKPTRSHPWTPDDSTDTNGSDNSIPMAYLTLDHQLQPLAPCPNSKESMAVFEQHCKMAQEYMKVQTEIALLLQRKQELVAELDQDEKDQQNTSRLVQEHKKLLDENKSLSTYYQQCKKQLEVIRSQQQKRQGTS
# UniProt Q5VWZ2: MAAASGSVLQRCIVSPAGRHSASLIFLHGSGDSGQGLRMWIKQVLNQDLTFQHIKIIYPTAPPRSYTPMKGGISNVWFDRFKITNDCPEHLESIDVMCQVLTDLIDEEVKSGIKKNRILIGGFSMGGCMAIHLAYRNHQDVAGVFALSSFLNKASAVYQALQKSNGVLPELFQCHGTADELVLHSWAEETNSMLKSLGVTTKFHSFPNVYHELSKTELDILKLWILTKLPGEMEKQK
# UniProt P55145: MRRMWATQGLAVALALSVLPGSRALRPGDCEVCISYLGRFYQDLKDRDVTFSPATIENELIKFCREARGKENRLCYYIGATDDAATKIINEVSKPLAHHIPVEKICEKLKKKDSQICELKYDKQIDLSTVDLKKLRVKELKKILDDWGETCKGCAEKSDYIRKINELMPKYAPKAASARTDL
# UniProt Q13163: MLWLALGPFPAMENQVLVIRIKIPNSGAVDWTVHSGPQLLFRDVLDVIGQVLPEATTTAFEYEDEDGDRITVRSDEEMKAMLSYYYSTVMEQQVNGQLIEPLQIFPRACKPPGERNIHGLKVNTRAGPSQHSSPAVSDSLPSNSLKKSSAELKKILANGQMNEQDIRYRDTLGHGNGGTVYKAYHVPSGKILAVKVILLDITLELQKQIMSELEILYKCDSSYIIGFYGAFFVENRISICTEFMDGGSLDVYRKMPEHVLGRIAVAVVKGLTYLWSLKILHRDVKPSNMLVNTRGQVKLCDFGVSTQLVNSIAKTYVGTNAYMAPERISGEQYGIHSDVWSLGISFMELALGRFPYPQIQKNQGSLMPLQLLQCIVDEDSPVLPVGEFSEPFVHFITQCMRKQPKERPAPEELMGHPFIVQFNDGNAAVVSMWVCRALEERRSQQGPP
# The list shows a part of the results.
# What was measured:
# Experiment in all cases: log2 fold change, soluble protein after heating vs DMSO (PISA); higher = thermal stabilisation; K562 lysate, 10 uM; active = over 0.2 and 3.5 SD of the protein, either way, in both replicates (recomputed)
# [1] = compound: NCC(=O)Nc1ccc(-n2nc(C(F)(F)F)cc2-c2ccc3c(ccc4ccccc43)c2)cc1
# How it was run: (§1)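 To prepare the extract, K562 pellets were dounce-homogenised in PBS pH 7.4 with 1 mM MgCl2, giving crude material at 1 mg/mL protein. This was treated with 10 μM compound for 30 min, then heated in aliquots for 3 min over 48°C-58°C before pooling and addition of NP-40 to 0.5% at 4°C. Centrifugation at 21,000xg for 90 min left soluble protein in the supernatant, which TMTpro 16plex LC-MS/MS quantified with equalised channel sums. Results are log-two fold changes in thermal stability compared with solvent controls, from duplicates.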
# vorinostat = compound: O=C(CCCCCCC(=O)Nc1ccccc1)NO [vorinostat]
# How it was run: as §1
# silmitasertib = compound: O=C(O)c1ccc2c(c1)nc(Nc1cccc(Cl)c1)c1ccncc12 [silmitasertib]
# How it was run: as §1
# [2] = compound: O=C1NC(=O)C(c2cnc3ccccn23)=C1c1cn2c3c(cc(F)cc13)CN(C(=O)N1CCCCC1)CC2
# How it was run: as §1
# entospletinib = compound: c1cn2cc(-c3ccc4cn[nH]c4c3)nc(Nc3ccc(N4CCOCC4)cc3)c2n1 [entospletinib]
# How it was run: as §1
Target,log2 fold change [1],log2 fold change (vorinostat),log2 fold change (silmitasertib),log2 fold change [2],log2 fold change (entospletinib)
MAPK8IP3 (UniProt Q9UPT6),inactive: -0.041,inactive: 0.06,inactive: 0.026,inactive: -0.044,inactive: 0.011
MAD1L1 (UniProt Q9Y6D9),inactive: 0.041,inactive: -0.022,inactive: -0.01,inactive: -0.04,inactive: 0.004
MAFF (UniProt Q9ULX9),inactive: 0.093,inactive: 0.01,inactive: -0.153,inactive: -0.163,inactive: 0.083
LZTS1 (UniProt Q9Y250),inactive: 0.04,inactive: 0.101,inactive: -0.143,inactive: 0.121,inactive: 0.07
MAGEC1 (UniProt O60732),inactive: 0.007,inactive: -0.091,inactive: 0.082,inactive: 0.025,inactive: -0.003
LTF (UniProt P02788),inactive: -0.034,inactive: 0.054,inactive: -0.165,inactive: 0.513,inactive: 0.036
MAPK14 isoform 2 (UniProt Q16539),inactive: -0.06,inactive: -0.328,inactive: 0.291,inactive: -0.092,inactive: -0.015
MACO1 (UniProt Q8N5G2),inactive: 0.081,inactive: 0.028,inactive: -0.003,inactive: -0.003,inactive: 0.005
MARK3 (UniProt P27448),inactive: -0.035,inactive: -0.069,active: 0.445,inactive: 0.035,inactive: 0.036
MAPRE2 (UniProt Q15555),inactive: -0.063,inactive: 0.045,inactive: -0.051,inactive: -0.016,inactive: 0.038
LYAR (UniProt Q9NX58),inactive: 0.011,inactive: 0.109,inactive: 0.005,inactive: 0.001,inactive: 0.014
MAP1S (UniProt Q66K74),inactive: 0.006,active: -0.242,inactive: -0.004,inactive: -0.025,inactive: 0.01
LYSMD1 (UniProt Q96S90),inactive: 0.029,inactive: 0.072,inactive: -0.026,inactive: -0.007,inactive: 0
MAN1A2 (UniProt O60476),inactive: 0.001,inactive: 0.107,inactive: 0.01,inactive: -0.004,inactive: -0.038
MAIP1 (UniProt Q8WWC4),inactive: -0.012,inactive: 0.002,inactive: 0.004,inactive: -0.044,inactive: 0.008
MAPKAPK2 (UniProt P49137),inactive: -0.019,active: -0.36,inactive: 0.072,inactive: -0.014,inactive: 0.04
LUC7L (UniProt Q9NQ29),inactive: 0.003,inactive: 0.136,inactive: -0.126,inactive: -0.016,inactive: -0.019
LYPLA2 (UniProt O95372),inactive: -0.127,inactive: 0.035,inactive: -0.012,inactive: 0.073,inactive: -0.071
MAP3K7 (UniProt O43318),inactive: -0.01,inactive: -0.161,inactive: 0.006,inactive: -0.032,inactive: 0.013
LYPLAL1 (UniProt Q5VWZ2),inactive: 0.032,inactive: -0.057,inactive: -0.012,inactive: 0.013,inactive: 0.007
LYRM4 (UniProt Q9HD34),inactive: 0.01,inactive: 0.119,inactive: -0.019,inactive: 0.023,inactive: 0.007
MANF (UniProt P55145),inactive: 0.006,inactive: 0.078,inactive: -0.045,inactive: 0.013,inactive: -0.01
MAST2 (UniProt Q6P0Q8),inactive: 0.062,inactive: -0.166,inactive: 0.055,inactive: -0.013,inactive: -0.189
MAP2K5 (UniProt Q13163),inactive: -0.111,inactive: -0.293,inactive: -0.123,inactive: 0.023,inactive: 0.065

# Record cards (already shown):
# MACO1 (UniProt Q8N5G2) is listed as log2 fold change [1]: inactive: 0.081; log2 fold change (vorinostat): inactive: 0.028; log2 fold change (silmitasertib): inactive: -0.003; log2 fold change [2]: inactive: -0.003; log2 fold change (entospletinib): inactive: 0.005
# MAP3K7 (UniProt O43318) is listed as log2 fold change [1]: inactive: -0.01; log2 fold change (vorinostat): inactive: -0.161; log2 fold change (silmitasertib): inactive: 0.006; log2 fold change [2]: inactive: -0.032; log2 fold change (entospletinib): inactive: 0.013
